According to article PMC6468627:

Tests used:
[1] = target: T1, EpCAM (native, on primary lung cancer cells) (Homo sapiens (patient NSCLC tumor cells)) (UniProt P16422); test: confocal co-staining of tissue; details: co-localizes with anti-EpCAM antibody on lung cancer sections, 50 nM aptamer; DPBS, 25 °C, 30 min; cells (3×10^5) pre-incubated with 1 ng/uL salmon sperm DNA; DNA pools/library heated to 95 °C 5 min then on ice 10 min; pH not stated; protein on the cell surface; single-stranded DNA
T1 sequence: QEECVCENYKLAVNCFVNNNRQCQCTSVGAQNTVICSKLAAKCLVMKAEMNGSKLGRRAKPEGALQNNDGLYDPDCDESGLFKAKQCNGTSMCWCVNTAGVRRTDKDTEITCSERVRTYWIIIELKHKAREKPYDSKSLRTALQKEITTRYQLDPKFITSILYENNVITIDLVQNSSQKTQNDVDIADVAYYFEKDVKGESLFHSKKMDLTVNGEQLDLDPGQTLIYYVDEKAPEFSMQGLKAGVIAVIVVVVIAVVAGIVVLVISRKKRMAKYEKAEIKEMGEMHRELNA

[2] = target: T1, EpCAM (native, on primary lung cancer cells) (Homo sapiens (patient NSCLC tumor cells)); test: competition (flow cytometry); details: not displaced by anti-EpCAM antibody, 50 nM oligonucleotide; DPBS, 25 °C, 30 min; cells (3×10^5) pre-incubated with 1 ng/uL salmon sperm DNA; DNA pools/library heated to 95 °C 5 min then on ice 10 min; pH not stated; protein on the cell surface; label: FAM; single-stranded DNA

CTCCTCTGACTGTAACCACGACACGCACAAATGTCAGTGTACCGCACTCGCACATTCTTAGCATAGGTAGTCCAGAAGCC [EPCAM-APT-01 (ECM_01)]
binding result [1]: binds

CTCCTCTGACTGTAACCACGGTGCGCGTACCACCATGTGTACACACTGCATGTTTGGTTAGCATAGGTAGTCCAGAAGCC [EPCAM-APT-02 (ECM_02)]
binding result [1]: binds

AGAGAGAGAGAGAGAGAGAGAGAGAGAGAGAGAGAGAGAGAGAGAGAGAGAGAGAGAGAGAGAGAGAGAGAGAGAGAGAG [(AG)40 control oligonucleotide]
binding result [2]: no binding

The exact form of at least one protein or probe is not confirmed. Where cells or extracts were used, other partners may take part. For part of these data: Negatives hold for the conditions tested.
